Reference: publication PMC7392003
No constants are given. Whether binding was seen depends on the method and setting. In cells and extracts the contact can be indirect. Some entries that bind do so weakly or less than the wild type. Where a sequence is shown, tags or fusion partners need not be part of it.

Sequences of proteins named here, by UniProt entry; tags and fusion partners are left off.
UniProt O95832: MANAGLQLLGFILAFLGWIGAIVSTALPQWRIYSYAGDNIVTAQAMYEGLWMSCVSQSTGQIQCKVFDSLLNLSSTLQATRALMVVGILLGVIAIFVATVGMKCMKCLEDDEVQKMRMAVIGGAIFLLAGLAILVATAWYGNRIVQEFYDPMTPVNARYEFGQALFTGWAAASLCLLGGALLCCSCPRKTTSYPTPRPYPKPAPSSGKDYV

Molecular target: T1, EPHB6-myc (ephrin receptor B6) (UniProt O15197)
T1 sequence: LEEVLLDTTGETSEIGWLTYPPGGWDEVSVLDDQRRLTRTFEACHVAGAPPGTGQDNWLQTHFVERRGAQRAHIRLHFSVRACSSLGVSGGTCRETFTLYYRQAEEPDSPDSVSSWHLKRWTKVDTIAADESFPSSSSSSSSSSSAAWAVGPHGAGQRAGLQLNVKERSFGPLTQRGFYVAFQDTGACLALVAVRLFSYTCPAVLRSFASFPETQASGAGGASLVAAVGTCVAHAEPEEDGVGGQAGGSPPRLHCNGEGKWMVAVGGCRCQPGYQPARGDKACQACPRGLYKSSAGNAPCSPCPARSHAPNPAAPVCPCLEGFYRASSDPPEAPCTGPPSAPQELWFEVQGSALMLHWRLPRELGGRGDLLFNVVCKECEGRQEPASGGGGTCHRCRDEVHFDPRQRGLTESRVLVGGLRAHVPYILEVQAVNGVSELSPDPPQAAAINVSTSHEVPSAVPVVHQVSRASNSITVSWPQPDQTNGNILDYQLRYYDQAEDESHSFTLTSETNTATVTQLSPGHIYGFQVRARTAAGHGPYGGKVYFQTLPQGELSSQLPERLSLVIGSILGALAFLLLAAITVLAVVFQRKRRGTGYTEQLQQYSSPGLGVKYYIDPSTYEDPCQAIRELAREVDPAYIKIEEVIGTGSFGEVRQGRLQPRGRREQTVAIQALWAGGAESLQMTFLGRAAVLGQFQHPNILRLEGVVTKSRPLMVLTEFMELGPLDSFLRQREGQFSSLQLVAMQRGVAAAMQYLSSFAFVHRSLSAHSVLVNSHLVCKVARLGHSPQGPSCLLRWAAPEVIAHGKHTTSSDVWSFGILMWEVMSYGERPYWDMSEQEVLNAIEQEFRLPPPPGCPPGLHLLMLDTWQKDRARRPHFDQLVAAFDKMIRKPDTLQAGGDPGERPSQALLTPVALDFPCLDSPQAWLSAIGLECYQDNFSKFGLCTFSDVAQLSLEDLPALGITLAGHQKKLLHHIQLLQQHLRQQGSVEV
Assay: co-IP; HA-CLDN1 and/or EPHB6-myc overexpressed in HEK293T; 0.5 mg total lysate in IP lysis buffer (100 mM NaCl, 1% NP-40, 100 uM Na3VO4, 50 mM NaF, 30 mM sodium pyrophosphate, 20 mM Tris-HCl pH 7.5); IP with anti-myc antibody or mouse IgG on protein G magnetic beads; immunoblot with anti-HA

- binding: binds
Substance: HA-CLDN1 (Claudin 1) (from UniProt O95832 1-211)
